# According to patent publication US9125406B2, “Methods and compositions for control of cabbage looper, trichoplusia ni” (Simon Fraser University, priority 2008, dated 2015):
# System: third instar T. ni larvae
# Assay: Leaf disk choice feeding deterrence bioassay
# Format: in vivo, Trichoplusia ni
# Conditions: ratio of % deterrence to DC50 × % mortality; average used for ranges, 0.1 used for mortality ≤0
# Excerpt: Cabbage plants (Brassica oleraceae var. Stonehead) used in the bioassays were routinely grown in plastic pots with a mixture of sandy loam soil and peat moss (4:1) in a greenhouse at the University of British Columbia, Vancouver, BC, Canada. Leaves were collected from cabbage plants that were 5-6 weeks old.
# T. ni larvae and moths were obtained from a long established colony (>50 generations) maintained on an artificial diet, Velvetbean Caterpillar Diet No. F9796 [Bio-Sery Inc. (Frenchtown, NIL)] in the insectary of the University of British Columbia (UBC).
# Initial screening for feeding deterrent effects was conducted at 50 μg/cm^2 in feeding deterrent bioassays.
# Larvae were given the choice of feeding on two leaf disks, one treated with 10 μL of a solution of the test substance painted on each side and the other treated with a carrier solvent alone. The number of larvae was 25 per treatment.
# Feeding deterrence data (percent) for initial screening concentration were analyzed by analysis of variance (ANOVA) after arcsin transformation using statistics software (Statistix 7. Analytical Software, Statistix 7 for Windows 95, 98, NT, 2000. Analytical Software, Tallahassee).
row,SMILES,Index = FD/(DC50 × mortality)
1,"CCCCOc1ccccc1OCCC [3a{3, 4}, 1-propoxy-2-butoxybenzene]",0.25
2,"C=CCOc1ccccc1OCCC [3a{3, 6}, 1-allyloxy-2-propoxybenzene]",0.5
3,"C=CCOc1ccccc1OCCCC [3a{4, 6}, 1-allyloxy-2-butoxybenzene]",0.3
4,"CCOc1cccc(OCC)c1 [3b{2,2}, 1,3-Diethoxy benzene]",0.08
5,"CCCOc1cccc(OCCC)c1 [3b{3,3}, 1,3-Dipropoxy benzene]",0.05
6,"CCCOc1cccc(OCCC(C)C)c1 [3b{3, 5}, 3-propoxy-1-isopentoxybenzene]",0.6
7,"C=CCOc1cccc(OCC=C)c1 [3b{6, 6}, 1,3-Diallyloxy benzene]",0.4
8,"CCOc1ccc(OCC)cc1 [3c{2, 2}, 1,4-Diethoxy benzene]",0.03
9,"CCCOc1ccc(OCC)cc1 [3c{2, 3}, 4-ethoxy-1-propoxybenzene]",0.18
10,"CCCOc1ccc(OCCC)cc1 [3c{3,3}, 1,4-Dipropoxy benzene]",0.2
11,"C=CCOc1ccc(OCCC)cc1 [3c{3, 6}, 1-allyloxy-4-propoxybenzene]",2000
12,"C=CCOc1ccc(OCC=C)cc1 [3c{6,6}, 1,4-Diallyloxy benzene]",0.25
13,"C=CCc1cc(OC)ccc1OC [5c{1, 1}, 1,4-dimethoxy-2-allyl-benzene]",0.1
14,"C=CCc1cc(OCCC)ccc1OC [5c{3, 1}, 1-methoxy-2-allyl-4-propoxy-benzene]",1.7
